PubChem BioAssay AID1688 (National Center for Advancing Translational Sciences (NCATS), 2009)
The campaign covered roughly 220,000 compounds. About 2,400 (1.1%) were called active. Inconclusive means that the source gave no clear call. Such entries were picked first, then a sample of the others. Calls come from the whole dose curve; as a rule, active = well fitted inhibition curve with a large enough effect; inconclusive = small, poorly fitted or top-dose-only effect, or effect the other way; inactive = no such curve, though single readings can be large or run the other way. Potencies beside an inconclusive call are fits to weak or partial responses and may not hold up.

assay: qHTS Multiplex Assay to Identify Dual Action Probes in a Cell Model of Huntington: Aggregate Formation (GFP); conditions: PC12 HttQ103-GFP aggregates, Acumen cytometry, 40 h; activity change, negative = inhibition: at 46.1 µM (top of the series) unless noted; note: nearly all actives have a fitted effect of over 60% in size
How it was run: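 Compounds (qHTS titration) were added to PC12 cells expressing an ecdysone-driven HTT exon 1 Q103–GFP fusion after induction with 100 nM tebufenozide. Aggregate formation was measured as GFP objects in cell lysates.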
% is set by controls: 0 for no effect and ±100 for the full control effect; potency is the fitted concentration of half-maximal effect.

| SMILES | Potency | activity change, negative = inhibition |
| --- | --- | --- |
| CC(c1ccon1)N(C)Cc1cn(Cc2ccccc2)nc1-c1ccc2c(c1)OCO2 (stereo not drawn) | active: 14.1 µM |  |
| C/C(N)=C(/C#N)C(=O)CSc1nn(-c2ccc(Cl)cc2)c(=S)s1 | inconclusive: 22.4 µM [inhibitor, single point] |  |
| COc1ccccc1NC(=O)CSc1nnc(Cn2cnc3ccccc32)o1 |  | inactive: -5.07% [at 9.22 µM] |
| Cc1ccc(N2C(=O)c3sc4nnc(C)c(=O)n4c3C2=O)cc1 |  | inactive: -0.952% |
| Cc1cnc(C(=O)O)cn1 |  | inactive: -14% |
| O=c1/c(=C/c2ccco2)sc2n1CN(c1ccccc1)CN=2 |  | inactive: 6.26% |
| Cc1ccc(C)c(S(=O)(=O)n2cnc3ccccc32)c1 | inconclusive: 0.891 µM [inhibitor, single point] |  |
| COc1ccccc1N(CC(=O)Nc1ccc2c(c1)OCCO2)S(C)(=O)=O | inconclusive: 1.12 µM [inhibitor, partial curve] |  |
| O=C1C(Cl)=C(Nc2ccccc2)C(=O)c2ccccc21 | active: 12.6 µM |  |
| CN1CCN(NC(=O)C23CC4CC(CC(C4)C2)C3)CC1 | inconclusive: 5.62 µM [inhibitor, single point] |  |
| COc1ccc(NC2=CC(c3ccccc3)N(c3ccc(OC)cc3)C2=O)cc1 (stereo not drawn) |  | inactive: 18.3% [at 9.22 µM] |
| COc1ccc(OC)c(NC(=O)c2ccc(NC(C)=O)cc2)c1 | inconclusive: 8.91 µM [inhibitor, partial curve] |  |
| OCC1(O)OC[C@@H](O)[C@H]1O (stereo partly drawn) |  | inactive: 15.2% [at 9.22 µM] |
| Cc1cc(C)nc(SCC(=O)NC2=NN=C(c3ccc(Br)cc3)CS2)n1 | inconclusive: 25.1 µM [inhibitor, single point] |  |
| CCOC(=O)Cc1csc(NC(=O)c2ccco2)n1 | inconclusive: 5.62 µM [inhibitor, single point] |  |
| Cc1ccc(/C=N/NC(=O)c2ccccc2OCc2cccc(Br)c2)o1 |  | inactive: -28.2% |
| CC(C)C(C)NC(=O)CSc1nc2scc(-c3ccco3)c2c(=O)n1-c1ccccc1 (stereo not drawn) |  | inactive: -4.5% |
| CCn1c2c(c(=N)c3c1CCC3)CCC2 |  | inactive: -3.21% |
| COc1ccc(/C=C(\C#N)C(=O)OCC(=O)Nc2ccc(C(C)(C)C)cc2)cc1 |  | inactive: 19.8% |
| COC(=O)C1C(=O)c2c([nH]c(C(=O)OC3CCCC3C)c2C)CC1C (stereo not drawn) | inconclusive: 25.1 µM [inhibitor, single point] |  |
| CCOC(=O)N1CCN(C(=O)c2ccc(CS(=O)(=O)c3c(Cl)cccc3Cl)o2)CC1 | active: 0.0009 µM |  |
| COc1ccc(-c2nnc(SCc3cc(C)ccc3C)n2N)cc1 |  | inactive: -3.39% |
| O=C(NCCn1ccc2ccccc21)c1ccc(S(=O)(=O)N2CCCCC2)cc1 | inconclusive: 35.5 µM [inhibitor, single point] |  |
| CCN(CCCNC(=O)c1c(C)cc(=O)oc1C)c1cccc(C)c1 |  | inactive: 4.61% |
| CCS(=O)(=O)Nc1ccc(NC(C)=O)cc1 |  | inactive: 10.6% |

Nothing new here: an excerpt of the list.

| SMILES | Potency | activity change, negative = inhibition |
| --- | --- | --- |
| COc1ccc(NC2=CC(c3ccccc3)N(c3ccc(OC)cc3)C2=O)cc1 (stereo not drawn) |  | inactive: 18.3% [at 9.22 µM] |
| COc1ccc(OC)c(NC(=O)c2ccc(NC(C)=O)cc2)c1 | inconclusive: 8.91 µM [inhibitor, partial curve] |  |
| OCC1(O)OC[C@@H](O)[C@H]1O (stereo partly drawn) |  | inactive: 15.2% [at 9.22 µM] |
| Cc1cc(C)nc(SCC(=O)NC2=NN=C(c3ccc(Br)cc3)CS2)n1 | inconclusive: 25.1 µM [inhibitor, single point] |  |
| CCOC(=O)Cc1csc(NC(=O)c2ccco2)n1 | inconclusive: 5.62 µM [inhibitor, single point] |  |
| Cc1ccc(/C=N/NC(=O)c2ccccc2OCc2cccc(Br)c2)o1 |  | inactive: -28.2% |

Continued:

| SMILES | Potency | activity change, negative = inhibition |
| --- | --- | --- |
| O=C1CC(Sc2nnnn2-c2ccccc2)C(=O)N1c1cccc(Cl)c1 (stereo not drawn) | active: 22.4 µM |  |
| COc1ccc(/C=C/c2nnc(NC(=O)CSc3ccc(Cl)cc3)s2)cc1 | inconclusive: 3.16 µM [inhibitor, single point] |  |
| O=C(CSC1=NCCN1)Nc1cccc(C(F)(F)F)c1 | inconclusive: 35.5 µM [inhibitor, single point] |  |
| O=C(NC(=S)Nc1ccc(N2CCOCC2)cc1)c1cccc([N+](=O)[O-])c1 |  | inactive: 6.68% |
| O=C(O)c1ccc(S(=O)(=O)Nc2ccc(O)c(Sc3nc4ccccc4s3)c2)cc1 |  | inactive: 24.1% |
| OC(CN1c2ccccc2Sc2ccccc21)Cn1nnc2ccccc21 (stereo not drawn) | inconclusive: 0.0891 µM [inhibitor, full curve, poor fit] |  |
| COc1cc(S(=O)(=O)NC2CCCCC2)ccc1F | inconclusive: 35.5 µM [inhibitor, single point] |  |
| Cc1csc(NC(=O)Cc2nn(C)c(=O)c3ccccc23)n1 | inconclusive: 7.08 µM [inhibitor, partial curve] |  |
| COc1cc(-c2nnc(SCc3cc(=O)oc4cc(C)ccc34)o2)cc(OC)c1OC | inconclusive: 22.4 µM [activator, partial curve] |  |
| CCC(C)NCCOCCOc1ccc(Cl)cc1Br (stereo not drawn) | inconclusive: 5.62 µM [activator, partial curve] |  |
| Cc1cc([N+](=O)[O-])cc2c1NC(=O)C2(O)N1CCOCC1 (stereo not drawn) |  | inactive: 2.05% |
| C#CC[N+](C)(C)CCCCCCCCCC | inconclusive: 11.2 µM [inhibitor, partial curve] |  |
| COc1ccc2cc(CN(Cc3ccco3)C(=S)NCC3CCCO3)c(=O)[nH]c2c1 (stereo not drawn) |  | inactive: -0.845% [at 9.22 µM] |
| O=C(NC1CCN(C(=O)N2c3ccccc3Sc3ccccc32)CC1)c1ccccc1Cl | inconclusive: 25.1 µM [inhibitor, single point] |  |
| Cc1cccc(S(=O)(=O)NCCc2cn3ccccc3n2)c1 | inconclusive: 0.562 µM [activator, full curve, poor fit] |  |
| Cn1cc([N+](=O)[O-])c(C(=O)N/N=C/c2cc3c(cc2Br)OCO3)n1 |  | inactive: 5.14% [at 9.22 µM] |
| N#Cc1cc([N+](=O)[O-])ccc1Oc1cccc(/C=N/NC(=O)c2ccc(Cl)cc2)c1 | inconclusive: 7.08 µM [inhibitor, partial curve] |  |
| Cc1cccc(C)c1NC(=S)N(Cc1ccco1)C1CCN(C(C)C)CC1 | inconclusive: 1.26 µM [inhibitor, single point] |  |
| Nn1cnnc1SC1CCCCC1NS(=O)(=O)c1ccccc1 (stereo not drawn) | inconclusive: 4.47 µM [inhibitor, partial curve] |  |
| O=C(COc1ccc(/C=C\[N+](=O)[O-])cc1)N1CCOCC1 | inconclusive: 35.5 µM [inhibitor, single point] |  |
| CCn1cc(C(=O)OC(C)C(=O)Nc2c(C)n(C)n(-c3ccccc3)c2=O)c(=O)c2ccc(C)nc21 (stereo not drawn) | inconclusive: 35.5 µM [activator, single point] |  |
| CC(C)(C)c1ccccc1OCCOCCNCc1ccccc1 | active: 17.8 µM |  |
| CC(C)(C)c1ccc(OCc2ccc(C(=O)N/N=C/c3ccc(O)c(O)c3)cc2)cc1 | inconclusive: 20 µM [inhibitor, single point] |  |
| CCOC(=O)COn1c(=O)c(-c2ccco2)[n+]([O-])c2ccccc21 | inconclusive: 17.8 µM [inhibitor, single point] |  |
| O=c1cc(-c2ccccc2)c2ccccc2[nH]1 | inconclusive: 3.55 µM [inhibitor, single point] |  |

| SMILES | Potency | activity change, negative = inhibition |
| --- | --- | --- |
| Cc1cc(C)nc(NS(=O)(=O)c2ccc(NC(=O)c3cccs3)cc2)n1 |  | inactive: 7.49% |
| CCOc1ccc(CNC(=O)c2ccc(Sc3ccc(Cl)cc3)c(NC(C)=O)c2)cc1 | inconclusive: 35.5 µM [inhibitor, single point] |  |
| CC(C)COC(=O)C1C2C=CC3(CN(C(C)c4ccc(Br)cc4)C(=O)C13)O2 (stereo not drawn) | inconclusive: 3.55 µM [inhibitor, single point] |  |
| CCCCn1c(SCc2cccc([N+](=O)[O-])c2)nc2ccsc2c1=O | inconclusive: 12.6 µM [inhibitor, partial curve] |  |
| Cc1sc2ncnc(NCC(C)(C)N3CCOCC3)c2c1C | inconclusive: 3.55 µM [inhibitor, full curve] |  |
| CC(C)Cn1c(SCC(=O)NC(=O)NC2CCCC2)nc2ccccc21 | inconclusive: 31.6 µM [inhibitor, partial curve, poor fit] |  |
| COc1ccc(F)cc1S(=O)(=O)Nc1ccc(C)cc1 | inconclusive: 6.31 µM [inhibitor, single point] |  |
| CCOc1ncccc1C(=O)OCc1ccc(C(=O)OC)cc1 | inconclusive: 35.5 µM [inhibitor, single point] |  |
| CCCCCCNc1nc(NCc2ccco2)nc(OCC)n1 | active: 10 µM |  |
| CC(C)CCOP(=O)(c1ccc(N(C)C)cc1)C(O)c1ccccc1F (stereo not drawn) | inconclusive: 5.62 µM [inhibitor, single point] |  |
| O=C(Nc1nnc(SCc2ccccn2)s1)C1CC(=O)N(c2ccccc2)C1 (stereo not drawn) |  | inactive: -18% |
| C=CCSC1=Nc2sccc2C2=NC(=O)CN12 |  | inactive: -6.69% |
| Cc1ccccc1NC(=S)NCc1ccccc1 | inconclusive: 1.78 µM [activator, full curve, poor fit] |  |
| CCn1c(=O)cc(OCC(=O)NCc2cccnc2)c2ccccc21 | inconclusive: 7.08 µM [activator, partial curve, poor fit] |  |
| O=S(=O)(/N=C/c1c(O)ccc2ccccc12)c1cccs1 |  | inactive: 2.7% |
| CC(C)(C)C1=C[C@@H](CO)C[C@@H](CO)C1 |  | inactive: -10.7% |
| Cc1ccccc1CN(CC(=O)Nc1cccc([N+](=O)[O-])c1)S(=O)(=O)c1ccc(Cl)cc1 | inconclusive: 25.1 µM [inhibitor, single point] |  |
| Cc1cccc(C(=O)CC(=O)c2cc(Cl)ccc2O)c1 | active: 12.6 µM |  |
| Cn1c(=O)c2c(nc(N/N=C/c3ccc(OC(=O)c4ccco4)cc3)n2Cc2ccc(F)cc2)n(C)c1=O | inconclusive: 15.8 µM [inhibitor, single point] |  |
| Cc1ccc(-n2c(SCC(=O)Nc3ncc(Cl)cc3Cl)nc3ccccc32)cc1 | inconclusive: 0.112 µM [inhibitor, full curve, poor fit] |  |
| O=C(c1ccc(CN2CCc3ccccc3C2)cc1)N1CCCCC1 |  | inactive: -24.6% |
| CSc1nc2nccc(-c3ccc(Oc4ccccc4)cc3)n2n1 | inconclusive: 31.6 µM [inhibitor, single point] |  |
| O=C(NC1CCCCCCC1)C1CCC(CNc2c(N3CCCC3)c(=O)c2=O)CC1 (stereo not drawn) |  | inactive: 1.48% |
